According to PubChem BioAssay (Tox21):
Where “and” joins values, the source holds several entries; their conditions need not be identical. Equal entries are not always repeated. These results got no clear call from the source, so the numbers are uncertain. Calls come from the whole dose curve.
% is set by controls: 0 for no effect and ±100 for the full control effect; potency is the fitted concentration of half-maximal effect.

Chains of the proteins cited; added tags and fusions are not shown.
UniProt P07550, whole entry: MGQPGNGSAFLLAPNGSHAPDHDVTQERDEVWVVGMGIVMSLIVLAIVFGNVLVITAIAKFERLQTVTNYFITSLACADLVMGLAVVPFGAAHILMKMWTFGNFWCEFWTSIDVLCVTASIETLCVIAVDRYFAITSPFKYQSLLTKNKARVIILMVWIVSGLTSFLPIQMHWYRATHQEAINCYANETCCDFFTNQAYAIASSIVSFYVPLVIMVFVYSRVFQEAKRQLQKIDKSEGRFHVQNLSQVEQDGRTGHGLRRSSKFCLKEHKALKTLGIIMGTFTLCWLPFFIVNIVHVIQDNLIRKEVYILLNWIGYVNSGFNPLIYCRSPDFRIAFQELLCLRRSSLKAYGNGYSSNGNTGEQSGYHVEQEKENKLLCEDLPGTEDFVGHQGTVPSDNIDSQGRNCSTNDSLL

Each compound was assayed against Beta-2 adrenergic receptor (Homo sapiens) (UniProt P07550) (assay: Adrenergic beta2 receptor (ADRB2) small molecule agonists, cell-based qHTS assay (AID 1963593)). Conditions: CHO-ADRB2 cells, cAMP HTRF, 30 min; activation: at 92.4 µM (top of the series) unless noted.
Excerpt: National Center for Advancing Translational Sciences [NCATS]
Division of Preclinical Innovation [DPI]
U.S. Environmental Protection Agency [EPA]
National Institutes of Environmental Health Sciences [NIEHS]
National Toxicology Program [NTP]
U.S. Food and Drug Administration [FDA]
Beta adrenergic receptors (Beta-ARs) belong to the G-protein coupled receptor (GPCR) superfamily, includes three subtypes - beta1, beta2, and beta3. Beta1-AR is the predominant receptor subtype expressed in the heart, and beta2-AR is expressed in the kidney, lung, blood vessel and in the heart, and beta3 is found in the adipocytes. Beta1 and 2 ARs couple to Gs protein and elevate cyclic adenosine mono phosphate (cAMP), which activates protein kinase A and leads to the downstream signaling responsible for the physiological actions. Beta-AR agonists or antagonists are the most prescribed therapeutic agents for heart failure and asthma, and these were one of the first target receptors for the rational drug design. Tox21 10K compound library was screened using the cAMP-Gs dynamic assay (Cisbio Bioassays, Shelton, CT) to identify agonists/antagonists of the Gs-coupled human adrenergic, beta2 receptor (ADRB2) in the CHO-ADRB2 cell line (Codex BioSolutions, Inc. Gaithersburg, MD), which stably over-expresses ADRB2. The principle of cAMP-Gs dynamic assay is based on HTRF technology, which facilitates the fluorescence resonance energy transfer (FRET) between donor Europium cryptate and acceptor d2-labeled cAMP. The cAMP generated within cells competes with the red acceptor, d2-labled cAMP, for binding to the monoclonal anti-cAMP-cryptate (Europium donor). An increase in intracellular cAMP leads to the disruption of FRET signal, and the signal is inversely proportional to the cAMP concentration. Isoproterenol HCl (Sigma-Aldrich, St. Louis, MO) was used as a positive control in the screening.
Tox21 Assay Protocol Summary:
CHO-ADRB2 cells were dispensed at 1,000/well in 4uL assay medium into white/solid 1536-well plates (Greiner Bio-One North America Inc., Monroe, NC) using a Multidrop Combi dispenser (ThermoFisher Scientific, Waltham, MA). The assay plates were incubated at 37C and 5% CO2 for an overnight (18-20hr). Then positive control and test compounds dissolved in DMSO were transferred to the assay plates at 23nL using a Pintool station (Wako, San Diego, CA). Following the compound and positive control transfer, 1uL stimulation mix containing 100uM IBMX and 25uM Ro-20-1724 was added to each well of the assay plates using BioRAPTR Flying Reagent Dispenser (FRD, Beckman Coulter, Brea, CA). The assay plates were incubated at room temperature for 0.5hr. Then 2.5ul each d2-labled cAMP and anti-cAMP-cryptate solutions were added separately to each well of the assay plates using an FRD and the assay plates were incubated at room temperature for 1hr.
For `Cc1ccc([N+](=O)[O-])c([N+](=O)[O-])c1`, the activation was inconclusive: 11.4% and the Potency was inconclusive: 2.21 µM. For `O=[N+]([O-])c1cccc([N+](=O)[O-])c1`, the activation was inconclusive: 13.6%. For `C/C1=C2N=C(/C=C3N=C(/C(C)=C4\[N-][C@@](C)([C@@H]5N=C1[C@](C)(CCC(=O)NC[C@@H](C)OP(=O)([O-])O[C@H]1[C@@H](O)[C@@H](n6cnc7cc(C)c(C)cc76)O[C@@H]1CO)[C@H]5CC(N)=O)[C@@](C)(CC(N)=O)[C@@H]4CCC(N)=O)[C@@](C)(CC(N)=O)[C@@H]\3CCC(N)=O)C(C)(C)[C@@H]/2CCC(N)=O.[C-]#N.[Co+3]`, the activation was inconclusive: -34.8% [at 42.5 µM]. With `[NH4+].[O-][Cl+3]([O-])([O-])[O-]` the activation was inconclusive: -1.89%. `CC(C)OP(C)(=O)OC(C)C` was tested, and the activation was inconclusive: 0.225% and inconclusive: 12.6%. With `Cc1ccc([N+](=O)[O-])cc1[N+](=O)[O-]` the Potency was inconclusive: 60.3 µM and inconclusive: 1.93 µM. In the case of `Cc1c([N+](=O)[O-])cccc1[N+](=O)[O-]`, the activation is reported as inconclusive: 2.15%. In the case of `COP(C)(=O)OC`, the activation is reported as inconclusive: -12.1%. With `O=[N+]([O-])[O-].[NH4+]` the activation was inconclusive: -8.96%. `CC(C)N(CCO)C(C)C` was tested, and the activation was inconclusive: 10.4%. For `OCCSCCO`, the Potency was inconclusive: 69.7 µM. In the case of `CCN(CC)CCCl`, the activation is reported as inconclusive: 4.38%. In the case of `Cc1cccc([N+](=O)[O-])c1[N+](=O)[O-]`, the activation is reported as inconclusive: 27.6% [at 42.5 µM]. `COc1ccc([N+](=O)[O-])cc1[N+](=O)[O-]` was tested, and the activation was inconclusive: 7.3%. For `CCOP(=O)(CC)OCC`, the activation was inconclusive: 35%. In the case of `CP(=O)(O)OCCC[Si](O)(O)O`, the Potency is reported as inconclusive: 7.7 µM. With `O=[N+]([O-])OCC(CO[N+](=O)[O-])(CO[N+](=O)[O-])CO[N+](=O)[O-]` the Potency was inconclusive: 0.243 µM.
